Data reported in the supplement of paper PMC12823440, “Inhibitors supercharge kinase turnover through native proteolytic circuits” (Nature, 2025).
Some of the results follow. The calls rarely recur for the same compound in another form.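 In K562 cells expressing nanoluciferase-fused kinases, luminescence was recorded at 4 h intervals between 2 and 18 h, normalized as percent of control with DMSO at 100% and a positive control at 0%. A significant (2 sigma) signal drop marks a time point as decreased. The authors' rule for a hit is not shown and takes in more than the number of time points.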

Protein sequences, listed by entry. Tags and fused reporters are not part of them. Lines headed by an entry give the natural chain unless they say otherwise; changes in a name come on top.
UniProt Q06187: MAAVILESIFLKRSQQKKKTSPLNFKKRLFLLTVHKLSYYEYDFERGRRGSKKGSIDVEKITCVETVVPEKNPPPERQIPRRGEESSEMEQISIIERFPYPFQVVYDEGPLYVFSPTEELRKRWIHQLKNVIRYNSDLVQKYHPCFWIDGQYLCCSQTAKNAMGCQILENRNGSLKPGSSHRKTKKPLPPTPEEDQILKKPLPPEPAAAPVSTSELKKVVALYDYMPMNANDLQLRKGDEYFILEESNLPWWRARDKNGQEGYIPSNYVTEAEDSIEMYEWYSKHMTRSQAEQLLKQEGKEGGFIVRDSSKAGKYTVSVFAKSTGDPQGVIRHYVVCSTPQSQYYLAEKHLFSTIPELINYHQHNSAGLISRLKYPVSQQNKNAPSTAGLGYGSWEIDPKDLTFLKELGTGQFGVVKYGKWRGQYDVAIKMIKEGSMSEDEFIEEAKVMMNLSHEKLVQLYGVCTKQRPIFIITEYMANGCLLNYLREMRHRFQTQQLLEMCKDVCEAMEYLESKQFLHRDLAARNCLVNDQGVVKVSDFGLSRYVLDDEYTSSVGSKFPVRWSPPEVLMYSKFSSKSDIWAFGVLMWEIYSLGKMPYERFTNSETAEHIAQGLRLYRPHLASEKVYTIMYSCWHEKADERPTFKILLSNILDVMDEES
UniProt Q9UQM7, whole entry: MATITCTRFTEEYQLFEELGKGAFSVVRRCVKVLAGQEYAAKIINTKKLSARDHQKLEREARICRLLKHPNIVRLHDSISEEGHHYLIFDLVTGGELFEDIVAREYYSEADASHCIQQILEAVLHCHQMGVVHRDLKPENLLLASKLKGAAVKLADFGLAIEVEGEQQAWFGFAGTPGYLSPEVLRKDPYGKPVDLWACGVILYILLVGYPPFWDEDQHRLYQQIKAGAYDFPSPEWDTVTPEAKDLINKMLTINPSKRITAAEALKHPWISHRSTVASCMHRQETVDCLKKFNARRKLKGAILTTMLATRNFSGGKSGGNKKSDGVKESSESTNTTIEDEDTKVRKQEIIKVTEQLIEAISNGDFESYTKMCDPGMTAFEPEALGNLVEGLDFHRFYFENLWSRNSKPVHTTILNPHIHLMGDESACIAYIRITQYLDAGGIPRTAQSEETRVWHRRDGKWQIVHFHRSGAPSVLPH
UniProt Q13555: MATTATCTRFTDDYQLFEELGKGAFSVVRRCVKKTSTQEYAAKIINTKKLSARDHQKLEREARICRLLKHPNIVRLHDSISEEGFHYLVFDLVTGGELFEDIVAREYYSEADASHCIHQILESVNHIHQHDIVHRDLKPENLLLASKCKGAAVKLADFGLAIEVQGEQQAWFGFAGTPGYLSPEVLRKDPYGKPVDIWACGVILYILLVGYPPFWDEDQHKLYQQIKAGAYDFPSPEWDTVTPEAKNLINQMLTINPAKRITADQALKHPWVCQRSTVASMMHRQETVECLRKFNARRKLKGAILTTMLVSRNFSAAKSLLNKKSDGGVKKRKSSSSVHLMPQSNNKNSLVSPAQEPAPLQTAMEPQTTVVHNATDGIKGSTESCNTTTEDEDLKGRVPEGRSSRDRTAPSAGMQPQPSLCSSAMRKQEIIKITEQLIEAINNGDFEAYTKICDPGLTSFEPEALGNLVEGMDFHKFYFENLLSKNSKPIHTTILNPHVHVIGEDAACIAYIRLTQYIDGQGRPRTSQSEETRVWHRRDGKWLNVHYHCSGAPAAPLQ
UniProt Q15131: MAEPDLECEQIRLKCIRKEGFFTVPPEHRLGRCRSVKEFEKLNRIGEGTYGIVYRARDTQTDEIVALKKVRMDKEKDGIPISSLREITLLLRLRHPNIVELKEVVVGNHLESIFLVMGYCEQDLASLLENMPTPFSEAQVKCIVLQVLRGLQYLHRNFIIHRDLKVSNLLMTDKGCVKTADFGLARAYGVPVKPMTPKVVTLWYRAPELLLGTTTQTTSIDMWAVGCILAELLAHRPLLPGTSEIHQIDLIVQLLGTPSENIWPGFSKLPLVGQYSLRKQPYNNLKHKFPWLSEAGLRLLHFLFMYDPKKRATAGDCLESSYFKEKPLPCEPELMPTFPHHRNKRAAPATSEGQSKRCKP
UniProt Q00526: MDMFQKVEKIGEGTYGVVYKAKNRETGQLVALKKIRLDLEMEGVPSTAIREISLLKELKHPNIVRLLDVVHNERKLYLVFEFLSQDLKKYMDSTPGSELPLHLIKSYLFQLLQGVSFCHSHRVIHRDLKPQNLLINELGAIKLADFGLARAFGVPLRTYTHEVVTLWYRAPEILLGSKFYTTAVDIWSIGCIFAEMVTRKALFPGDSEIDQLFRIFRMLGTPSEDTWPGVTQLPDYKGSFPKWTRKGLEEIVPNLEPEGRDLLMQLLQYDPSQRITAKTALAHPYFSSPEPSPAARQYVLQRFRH
UniProt P11802: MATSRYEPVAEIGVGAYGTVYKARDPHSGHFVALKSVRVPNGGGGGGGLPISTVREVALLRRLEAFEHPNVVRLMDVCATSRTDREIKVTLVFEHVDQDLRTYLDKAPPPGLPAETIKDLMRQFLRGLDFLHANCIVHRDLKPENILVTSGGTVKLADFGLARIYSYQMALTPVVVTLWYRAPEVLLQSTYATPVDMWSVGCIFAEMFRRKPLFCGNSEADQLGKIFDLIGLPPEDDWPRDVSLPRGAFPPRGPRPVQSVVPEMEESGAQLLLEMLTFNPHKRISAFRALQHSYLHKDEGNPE
UniProt Q00535, whole entry, looked up: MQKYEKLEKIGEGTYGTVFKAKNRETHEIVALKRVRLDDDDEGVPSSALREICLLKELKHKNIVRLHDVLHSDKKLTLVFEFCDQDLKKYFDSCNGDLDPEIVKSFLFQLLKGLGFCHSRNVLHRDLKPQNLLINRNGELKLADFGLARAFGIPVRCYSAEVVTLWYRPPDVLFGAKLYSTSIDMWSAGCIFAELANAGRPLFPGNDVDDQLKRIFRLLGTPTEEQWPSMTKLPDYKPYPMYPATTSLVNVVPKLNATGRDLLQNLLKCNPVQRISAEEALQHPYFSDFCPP
UniProt Q00534, whole entry: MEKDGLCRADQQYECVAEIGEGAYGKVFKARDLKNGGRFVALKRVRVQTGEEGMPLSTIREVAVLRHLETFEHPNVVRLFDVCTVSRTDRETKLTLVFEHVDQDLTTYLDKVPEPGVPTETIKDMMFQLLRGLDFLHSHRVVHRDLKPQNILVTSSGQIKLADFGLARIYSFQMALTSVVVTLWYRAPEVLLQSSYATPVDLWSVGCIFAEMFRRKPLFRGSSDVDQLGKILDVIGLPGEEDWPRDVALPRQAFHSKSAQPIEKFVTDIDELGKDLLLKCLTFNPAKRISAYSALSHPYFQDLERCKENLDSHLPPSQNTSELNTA
UniProt P50613: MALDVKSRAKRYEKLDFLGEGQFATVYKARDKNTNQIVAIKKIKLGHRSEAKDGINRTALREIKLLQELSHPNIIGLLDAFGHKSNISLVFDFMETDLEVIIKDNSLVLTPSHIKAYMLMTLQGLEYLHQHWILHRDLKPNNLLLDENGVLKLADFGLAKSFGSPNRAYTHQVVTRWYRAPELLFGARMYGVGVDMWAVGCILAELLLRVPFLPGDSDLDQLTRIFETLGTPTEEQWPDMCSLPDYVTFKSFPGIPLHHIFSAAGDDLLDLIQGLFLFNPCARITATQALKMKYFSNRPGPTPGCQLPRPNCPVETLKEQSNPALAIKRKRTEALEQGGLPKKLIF
UniProt O96017, whole entry: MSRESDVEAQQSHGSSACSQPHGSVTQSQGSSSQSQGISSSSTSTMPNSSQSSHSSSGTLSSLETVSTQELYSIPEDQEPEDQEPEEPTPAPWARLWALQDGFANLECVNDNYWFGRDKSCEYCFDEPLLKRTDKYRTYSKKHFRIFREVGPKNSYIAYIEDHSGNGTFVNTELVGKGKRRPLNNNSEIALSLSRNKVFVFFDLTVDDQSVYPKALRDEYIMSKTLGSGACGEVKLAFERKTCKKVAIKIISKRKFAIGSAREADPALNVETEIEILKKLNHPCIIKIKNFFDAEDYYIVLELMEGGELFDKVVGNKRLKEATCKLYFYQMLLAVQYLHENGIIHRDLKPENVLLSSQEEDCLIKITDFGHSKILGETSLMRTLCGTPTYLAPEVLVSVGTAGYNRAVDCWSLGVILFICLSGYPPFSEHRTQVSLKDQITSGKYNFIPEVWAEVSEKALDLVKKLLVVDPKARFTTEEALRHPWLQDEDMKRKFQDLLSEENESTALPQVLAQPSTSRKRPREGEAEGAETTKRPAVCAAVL
UniProt P07333, whole entry: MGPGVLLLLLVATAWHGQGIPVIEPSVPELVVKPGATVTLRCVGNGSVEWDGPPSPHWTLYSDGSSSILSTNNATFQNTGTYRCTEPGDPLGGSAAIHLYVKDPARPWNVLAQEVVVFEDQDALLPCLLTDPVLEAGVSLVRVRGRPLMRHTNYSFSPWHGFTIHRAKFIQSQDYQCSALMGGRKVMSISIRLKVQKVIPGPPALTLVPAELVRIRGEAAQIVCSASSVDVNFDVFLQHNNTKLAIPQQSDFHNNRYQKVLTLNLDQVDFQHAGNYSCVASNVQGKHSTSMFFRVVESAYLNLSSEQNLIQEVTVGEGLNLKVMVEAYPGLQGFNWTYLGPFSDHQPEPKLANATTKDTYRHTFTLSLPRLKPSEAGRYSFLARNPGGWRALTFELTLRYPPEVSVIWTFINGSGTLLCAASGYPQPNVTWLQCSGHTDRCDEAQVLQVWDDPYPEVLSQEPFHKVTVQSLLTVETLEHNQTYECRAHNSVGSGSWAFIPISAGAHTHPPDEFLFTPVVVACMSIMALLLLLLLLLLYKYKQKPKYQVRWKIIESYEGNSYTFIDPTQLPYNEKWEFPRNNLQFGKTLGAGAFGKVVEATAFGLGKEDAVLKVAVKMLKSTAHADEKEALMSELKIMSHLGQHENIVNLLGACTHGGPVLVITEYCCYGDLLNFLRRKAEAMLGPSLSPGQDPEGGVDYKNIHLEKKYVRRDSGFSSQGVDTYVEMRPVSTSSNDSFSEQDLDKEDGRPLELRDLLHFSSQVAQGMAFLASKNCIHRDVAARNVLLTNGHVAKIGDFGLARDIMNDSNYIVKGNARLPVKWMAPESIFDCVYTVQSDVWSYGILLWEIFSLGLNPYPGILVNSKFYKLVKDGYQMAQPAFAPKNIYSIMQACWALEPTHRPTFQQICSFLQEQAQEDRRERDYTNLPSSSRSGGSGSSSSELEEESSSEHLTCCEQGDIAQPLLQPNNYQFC
UniProt Q9Y463, whole entry, looked up: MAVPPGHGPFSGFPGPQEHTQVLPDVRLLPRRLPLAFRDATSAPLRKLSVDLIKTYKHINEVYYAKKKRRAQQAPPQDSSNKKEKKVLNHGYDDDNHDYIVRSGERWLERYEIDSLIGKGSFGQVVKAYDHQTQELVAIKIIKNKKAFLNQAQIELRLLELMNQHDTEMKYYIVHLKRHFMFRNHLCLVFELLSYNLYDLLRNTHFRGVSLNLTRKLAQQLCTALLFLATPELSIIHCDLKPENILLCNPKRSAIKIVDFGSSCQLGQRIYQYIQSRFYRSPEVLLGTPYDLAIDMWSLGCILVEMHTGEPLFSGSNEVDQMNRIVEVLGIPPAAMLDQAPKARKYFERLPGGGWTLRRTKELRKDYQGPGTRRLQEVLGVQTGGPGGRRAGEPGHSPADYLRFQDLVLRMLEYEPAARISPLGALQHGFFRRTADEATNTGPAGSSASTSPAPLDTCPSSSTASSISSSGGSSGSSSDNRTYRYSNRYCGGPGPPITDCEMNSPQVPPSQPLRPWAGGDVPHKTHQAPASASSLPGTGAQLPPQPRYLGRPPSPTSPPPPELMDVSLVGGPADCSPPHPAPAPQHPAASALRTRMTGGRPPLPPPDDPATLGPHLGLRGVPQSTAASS
UniProt Q92630: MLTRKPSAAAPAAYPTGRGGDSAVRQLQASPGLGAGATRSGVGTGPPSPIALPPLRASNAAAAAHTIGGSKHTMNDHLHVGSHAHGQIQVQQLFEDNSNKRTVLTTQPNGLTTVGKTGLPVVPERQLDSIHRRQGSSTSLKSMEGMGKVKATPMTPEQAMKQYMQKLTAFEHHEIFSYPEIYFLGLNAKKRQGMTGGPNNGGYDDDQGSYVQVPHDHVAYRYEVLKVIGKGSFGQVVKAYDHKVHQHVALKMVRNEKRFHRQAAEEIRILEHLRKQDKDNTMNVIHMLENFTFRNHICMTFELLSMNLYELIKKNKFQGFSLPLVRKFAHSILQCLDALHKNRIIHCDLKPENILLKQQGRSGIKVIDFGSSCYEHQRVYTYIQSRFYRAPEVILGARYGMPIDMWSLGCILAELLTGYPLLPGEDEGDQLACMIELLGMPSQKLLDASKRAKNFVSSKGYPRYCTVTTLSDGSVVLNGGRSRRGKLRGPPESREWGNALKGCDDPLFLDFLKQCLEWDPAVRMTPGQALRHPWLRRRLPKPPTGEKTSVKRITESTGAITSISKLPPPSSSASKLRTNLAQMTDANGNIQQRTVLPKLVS

What was measured:
Assay in all cases: kinase-Nluc reporter destabilization hit call (1 = scored as downregulated) (binary); higher = compound decreases kinase abundance
Settings in all cases: K562; 2-18 h
BRAF_V600E = system: BRAF_V600E
BTK = BTK (UniProt Q06187)
CAMK2A = CAMK2A (UniProt Q9UQM7)
CAMK2G = CAMK2G (UniProt Q13555)
CDK10 = CDK10 (UniProt Q15131)
CDK2 = CDK2 (UniProt P24941)
CDK3 = CDK3 (UniProt Q00526)
CDK4 = CDK4 (UniProt P11802)
CDK5 = CDK5 (UniProt Q00535)
CDK6 = CDK6 (UniProt Q00534)
CDK7 = CDK7 (UniProt P50613)
CDK9 = CDK9 (UniProt P50750)
CHEK2 = CHEK2 (UniProt O96017)
CSF1R = CSF1R (UniProt P07333)
CSK = CSK (UniProt P41240)
CSNK1A1 = CSNK1A1 (UniProt P48729)
CSNK1D = CSNK1D (UniProt P48730)
DDR1 = DDR1 (UniProt Q08345)
DYRK1B = DYRK1B (UniProt Q9Y463)
DYRK2 = DYRK2 (UniProt Q92630)

Structure (SMILES)	kinase-Nluc reporter destabilization hit call (BRAF_V600E)	kinase-Nluc reporter destabilization hit call (BTK)	kinase-Nluc reporter destabilization hit call (CAMK2A)	kinase-Nluc reporter destabilization hit call (CAMK2G)	kinase-Nluc reporter destabilization hit call (CDK10)	kinase-Nluc reporter destabilization hit call (CDK2)	kinase-Nluc reporter destabilization hit call (CDK3)	kinase-Nluc reporter destabilization hit call (CDK4)	kinase-Nluc reporter destabilization hit call (CDK5)	kinase-Nluc reporter destabilization hit call (CDK6)	kinase-Nluc reporter destabilization hit call (CDK7)	kinase-Nluc reporter destabilization hit call (CDK9)	kinase-Nluc reporter destabilization hit call (CHEK2)	kinase-Nluc reporter destabilization hit call (CSF1R)	kinase-Nluc reporter destabilization hit call (CSK)	kinase-Nluc reporter destabilization hit call (CSNK1A1)	kinase-Nluc reporter destabilization hit call (CSNK1D)	kinase-Nluc reporter destabilization hit call (DDR1)	kinase-Nluc reporter destabilization hit call (DYRK1B)	kinase-Nluc reporter destabilization hit call (DYRK2)
Cc1ccc(NC(=O)Nc2nnc(Sc3ncnc4cc(OCCCN5CCOCC5)ccc34)s2)cc1 (10 µM)	inactive: 0	inactive: 0	inactive: 0	inactive: 0	inactive: 0	inactive: 0	inactive: 0	inactive: 0	inactive: 0	inactive: 0	inactive: 0	inactive: 0	inactive: 0	inactive: 0	inactive: 0	inactive: 0	inactive: 0	inactive: 0	inactive: 0	inactive: 0
Cc1ccc(NC(=O)c2cccc(N(C)C)c2)cc1NC(=O)c1ccc(O)cc1 (10 µM)	inactive: 0	inactive: 0	inactive: 0	inactive: 0	inactive: 0	inactive: 0	inactive: 0	inactive: 0	inactive: 0	inactive: 0	inactive: 0	inactive: 0	inactive: 0	inactive: 0	inactive: 0	inactive: 0	inactive: 0	inactive: 0	inactive: 0	inactive: 0
C[C@]1(O)C[C@@H](c2nc(-c3ccc4ccc(-c5ccccc5)nc4c3)c3c(N)nccn32)C1 [Linsitinib] (2.5 µM)	inactive: 0	inactive: 0	inactive: 0	inactive: 0	inactive: 0	inactive: 0	inactive: 0	inactive: 0	inactive: 0	inactive: 0	inactive: 0	inactive: 0	inactive: 0	inactive: 0	inactive: 0	inactive: 0	inactive: 0	inactive: 0	inactive: 0	inactive: 0
FC(F)(F)c1ccc(CNc2ccc(Cc3c[nH]c4ncc(Cl)cc34)cn2)cc1 (10 µM)	inactive: 0	inactive: 0	inactive: 0	inactive: 0	inactive: 0	inactive: 0	inactive: 0	inactive: 0	inactive: 0	inactive: 0	inactive: 0	inactive: 0	inactive: 0	inactive: 0	inactive: 0	inactive: 0	inactive: 0	inactive: 0	inactive: 0	inactive: 0
CC(C)C(=O)Nc1ncc(-c2cc(C(F)F)nn2-c2c(Cl)cccc2Cl)s1 (10 µM)	inactive: 0	inactive: 0	inactive: 0	inactive: 0	inactive: 0	inactive: 0	inactive: 0	inactive: 0	inactive: 0	inactive: 0	active: 1	inactive: 0	inactive: 0	inactive: 0	inactive: 0	inactive: 0	inactive: 0	inactive: 0	inactive: 0	inactive: 0
C=CC(=O)Nc1cccc(Nc2nc(Nc3ccc(OCCOC)cc3)ncc2F)c1 [Spebrutinib] (10 µM)	inactive: 0	inactive: 0	inactive: 0	inactive: 0	inactive: 0	inactive: 0	inactive: 0	inactive: 0	inactive: 0	inactive: 0	inactive: 0	inactive: 0	inactive: 0	inactive: 0	inactive: 0	inactive: 0	inactive: 0	inactive: 0	inactive: 0	inactive: 0
Cc1ccc2c(Nc3ccc(Cl)cc3)nccc2c1Nc1ncccc1-c1ncnc2nc[nH]c12 [Raf inhibitor 1] (2.5 µM)	inactive: 0	inactive: 0	inactive: 0	inactive: 0	inactive: 0	inactive: 0	inactive: 0	inactive: 0	inactive: 0	inactive: 0	inactive: 0	inactive: 0	inactive: 0	inactive: 0	inactive: 0	inactive: 0	inactive: 0	inactive: 0	inactive: 0	inactive: 0
COc1cc(C=C(C#N)C(N)=O)cc(CSc2nc3ccccc3s2)c1O (10 µM)	inactive: 0	inactive: 0	inactive: 0	inactive: 0	inactive: 0	inactive: 0	inactive: 0	inactive: 0	inactive: 0	inactive: 0	inactive: 0	inactive: 0	inactive: 0	inactive: 0	inactive: 0	inactive: 0	inactive: 0	inactive: 0	inactive: 0	inactive: 0
CC#CC(=O)N[C@H]1CCCN(c2c(F)cc(C(N)=O)c3[nH]c(C)c(C)c23)C1 [Branebrutinib] (10 µM)	inactive: 0	inactive: 0	inactive: 0	inactive: 0	inactive: 0	inactive: 0	inactive: 0	inactive: 0	inactive: 0	inactive: 0	inactive: 0	inactive: 0	inactive: 0	inactive: 0	inactive: 0	inactive: 0	inactive: 0	inactive: 0	inactive: 0	inactive: 0
CNC(=O)c1cc(Oc2ccc(NC(=O)Nc3cc(C(C)(C)C)nn3-c3ccc4ncccc4c3)c(F)c2)ccn1 [Rebastinib] (2.5 µM)	inactive: 0	inactive: 0	inactive: 0	inactive: 0	inactive: 0	inactive: 0	inactive: 0	inactive: 0	inactive: 0	inactive: 0	active: 1	active: 1	inactive: 0	inactive: 0	inactive: 0	inactive: 0	inactive: 0	inactive: 0	inactive: 0	inactive: 0
Cc1c[nH]c2nccc(Oc3c(F)cc(Nc4cc(Cl)nc(N)n4)cc3F)c12 (10 µM)	inactive: 0	inactive: 0	inactive: 0	inactive: 0	inactive: 0	inactive: 0	inactive: 0	inactive: 0	inactive: 0	inactive: 0	inactive: 0	inactive: 0	inactive: 0	inactive: 0	inactive: 0	inactive: 0	inactive: 0	inactive: 0	inactive: 0	inactive: 0
O=C1Cc2c([nH]c3ccc(Br)cc23)-c2ncccc2N1 [1-Azakenpaullone] (10 µM)	inactive: 0	inactive: 0	inactive: 0	inactive: 0	inactive: 0	inactive: 0	inactive: 0	inactive: 0	inactive: 0	inactive: 0	inactive: 0	inactive: 0	inactive: 0	inactive: 0	inactive: 0	inactive: 0	inactive: 0	inactive: 0	inactive: 0	inactive: 0
COc1cc(Oc2ccnc3cc(OC)c(OC)cc23)ccc1NC(=O)NC(C)c1nccs1 (stereo not given) (2.5 µM)	inactive: 0	inactive: 0	inactive: 0	inactive: 0	inactive: 0	inactive: 0	inactive: 0	inactive: 0	inactive: 0	inactive: 0	inactive: 0	inactive: 0	inactive: 0	inactive: 0	inactive: 0	inactive: 0	inactive: 0	inactive: 0	inactive: 0	inactive: 0
Cc1cc(C(=O)Nc2cccc(C(=O)Nc3cccc(C(F)(F)F)c3)c2)on1 (10 µM)	inactive: 0	inactive: 0	inactive: 0	inactive: 0	inactive: 0	inactive: 0	inactive: 0	inactive: 0	inactive: 0	inactive: 0	inactive: 0	inactive: 0	inactive: 0	inactive: 0	inactive: 0	inactive: 0	inactive: 0	inactive: 0	inactive: 0	inactive: 0
Cc1c[nH]c2ccccc12 [Skatole] (10 µM)	inactive: 0	inactive: 0	inactive: 0	inactive: 0	inactive: 0	inactive: 0	inactive: 0	inactive: 0	inactive: 0	inactive: 0	inactive: 0	inactive: 0	inactive: 0	inactive: 0	inactive: 0	inactive: 0	inactive: 0	inactive: 0	inactive: 0	inactive: 0
Cc1ccc(S(=O)(=O)Nc2nc3ccccc3nc2Nc2ccc3nsnc3c2)cc1 [Pilaralisib analogue] (10 µM)	inactive: 0	inactive: 0	inactive: 0	inactive: 0	active: 1	inactive: 0	inactive: 0	inactive: 0	inactive: 0	inactive: 0	inactive: 0	inactive: 0	inactive: 0	inactive: 0	inactive: 0	inactive: 0	inactive: 0	inactive: 0	inactive: 0	active: 1
N#C/C(=C\c1ccc(O)c(O)c1)C(=O)NCCCc1ccccc1 (10 µM)	inactive: 0	inactive: 0	inactive: 0	inactive: 0	inactive: 0	inactive: 0	inactive: 0	inactive: 0	inactive: 0	inactive: 0	inactive: 0	inactive: 0	inactive: 0	inactive: 0	inactive: 0	inactive: 0	inactive: 0	inactive: 0	inactive: 0	inactive: 0
CC(C)(C)S(=O)(=O)c1cc2c(Nc3ccc4scnc4c3)ncnc2cc1OCCO (2.5 µM)	inactive: 0	inactive: 0	inactive: 0	inactive: 0	inactive: 0	inactive: 0	inactive: 0	inactive: 0	inactive: 0	inactive: 0	inactive: 0	inactive: 0	inactive: 0	inactive: 0	inactive: 0	inactive: 0	inactive: 0	inactive: 0	inactive: 0	inactive: 0
CCN(CCO)CCCOc1ccc2c(Nc3cc(CC(=O)Nc4cccc(F)c4)[nH]n3)ncnc2c1 [Barasertib-HQPA] (10 µM)	inactive: 0	inactive: 0	inactive: 0	inactive: 0	inactive: 0	inactive: 0	inactive: 0	inactive: 0	inactive: 0	inactive: 0	inactive: 0	inactive: 0	inactive: 0	inactive: 0	inactive: 0	inactive: 0	inactive: 0	inactive: 0	inactive: 0	inactive: 0

Three entries already listed, arranged by length of the SMILES, low to high:
Structure (SMILES)	kinase-Nluc reporter destabilization hit call (BRAF_V600E)	kinase-Nluc reporter destabilization hit call (BTK)	kinase-Nluc reporter destabilization hit call (CAMK2A)	kinase-Nluc reporter destabilization hit call (CAMK2G)	kinase-Nluc reporter destabilization hit call (CDK10)	kinase-Nluc reporter destabilization hit call (CDK2)	kinase-Nluc reporter destabilization hit call (CDK3)	kinase-Nluc reporter destabilization hit call (CDK4)	kinase-Nluc reporter destabilization hit call (CDK5)	kinase-Nluc reporter destabilization hit call (CDK6)	kinase-Nluc reporter destabilization hit call (CDK7)	kinase-Nluc reporter destabilization hit call (CDK9)	kinase-Nluc reporter destabilization hit call (CHEK2)	kinase-Nluc reporter destabilization hit call (CSF1R)	kinase-Nluc reporter destabilization hit call (CSK)	kinase-Nluc reporter destabilization hit call (CSNK1A1)	kinase-Nluc reporter destabilization hit call (CSNK1D)	kinase-Nluc reporter destabilization hit call (DDR1)	kinase-Nluc reporter destabilization hit call (DYRK1B)	kinase-Nluc reporter destabilization hit call (DYRK2)
Cc1cc(C(=O)Nc2cccc(C(=O)Nc3cccc(C(F)(F)F)c3)c2)on1 (10 µM)	inactive: 0	inactive: 0	inactive: 0	inactive: 0	inactive: 0	inactive: 0	inactive: 0	inactive: 0	inactive: 0	inactive: 0	inactive: 0	inactive: 0	inactive: 0	inactive: 0	inactive: 0	inactive: 0	inactive: 0	inactive: 0	inactive: 0	inactive: 0
FC(F)(F)c1ccc(CNc2ccc(Cc3c[nH]c4ncc(Cl)cc34)cn2)cc1 (10 µM)	inactive: 0	inactive: 0	inactive: 0	inactive: 0	inactive: 0	inactive: 0	inactive: 0	inactive: 0	inactive: 0	inactive: 0	inactive: 0	inactive: 0	inactive: 0	inactive: 0	inactive: 0	inactive: 0	inactive: 0	inactive: 0	inactive: 0	inactive: 0
COc1cc(Oc2ccnc3cc(OC)c(OC)cc23)ccc1NC(=O)NC(C)c1nccs1 (stereo not given) (2.5 µM)	inactive: 0	inactive: 0	inactive: 0	inactive: 0	inactive: 0	inactive: 0	inactive: 0	inactive: 0	inactive: 0	inactive: 0	inactive: 0	inactive: 0	inactive: 0	inactive: 0	inactive: 0	inactive: 0	inactive: 0	inactive: 0	inactive: 0	inactive: 0
